Consider 58 molecules from PubChem BioAssay AID2685 (National Center for Advancing Translational Sciences (NCATS), 2010).

The other results are listed elsewhere or left out. The main result of the screen is listed elsewhere. These columns were measured beside it and carry no call. Compounds called inactive in the main read-out are mostly missing here. The note in brackets gives the kind of curve behind each potency; many fits are weak.

The test is described as follows: qHTS Assay for Lipid Storage Modulators in Drosophila S3 Cells.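 On cell number change: cells counted by Cell Tracker Red CMTPX staining in the red channel.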 To be noted: BODIPY lipid droplet fluorescence, 18-24 h; for cell number change: measured here: cell count max response, cells fed with added oleic acid. In a few lines:
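Laser-scanning cytometry quantifies lipid droplet accumulation (500–530 nm total intensity; droplet/cell object ratio) in oleic acid-fed (400 uM added) Drosophila S3 cells treated with a concentration series. 20 uM Triacsin C defined 100% inhibition.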
A general note: qHTS replaces the single test concentration by a dilution series.

[1] abbreviates: measured here: lipid fluorescence (Fed channel) AC50, cells fed with added oleic acid.
The mark [2] stands for this setting: measured here: cell number channel AC50, cells fed with added oleic acid.

As usually defined, the AC50 is the concentration giving half of the maximal activity seen. Read a high AC50 as weaker potency.

In the case of `O=c1[nH]c(-c2ccccc2)c(-c2ccccc2)nc1[N+](=O)[O-]`, the cell number change is -4.5%. Moreover, under setting [1], the AC50 was 29.1 µM [falling, single point].

`COc1ccc(C(=O)N[C@H](C(=O)Nc2sccc2C(N)=O)C(C)C)cc1`: the cell number change is 7.14%. Besides, the half-maximal activity concentration (AC50) under setting [2] was 6.51 µM [rising, single point]. Moreover, the AC50 under setting [1] is 6.51 µM [rising, single point].

As to `CCOC(=O)C(C)Oc1ccc(C2NC(=O)NC(C)=C2C(C)=O)cc1Br` (stereo unspecified), the cell number change is 12.8%. Besides, the AC50 under setting [1] is 0.92 µM [falling, full curve, poor fit].

In the case of `COC(=O)Cn1c(CN2CCN(C(=O)c3ccco3)CC2)nc2c1c(=O)n(C)c(=O)n2C`, the cell number change stood at 19.5%.

For the molecule `CN(Cc1nc(-c2cnccn2)no1)Cc1n[nH]c2c1CCCCC2`, the cell number change is -12.4%.

In the case of `CC(C)c1nc(SCc2ccccn2)c2c(=O)n(C)c(=O)n(C)c2n1`, the AC50 under setting [1] is 6.51 µM [rising, single point].

Take `CC1(c2ccccc2)NC(=O)N(CC(=O)Nc2cccc(C#N)c2)C1=O` (stereo unspecified): the cell number change was -17.6%. The concentration at half-maximal activity (AC50) under setting [1] was 3.26 µM [rising, full curve, poor fit].

Turning to `O=C(NCCn1cc(SCc2ccc(F)cc2)c2ccccc21)c1c(F)cccc1F`, the cell number change was -21.4%. Also, under setting [1], the AC50 is 1.84 µM [rising, partial curve].

As for `Cn1nc(C(=O)OCc2ccccc2F)c2ccccc2c1=O`, the AC50 reads like this: under setting [2], 1.64 µM [rising, partial curve]; under setting [1], 1.3 µM [rising, full curve].

`COC(=O)C1C(c2ccccc2)C(C(=O)OCc2ccco2)C1c1ccccc1` (stereo unspecified): the cell number change was -34.1%. Further, under setting [2], the AC50 is 16.4 µM [falling, partial curve, poor fit]. Moreover, under setting [1], the AC50 is 23.1 µM [falling, partial curve].

As to `CC(OC(=O)CCCSc1nc2ccccc2s1)C(=O)NC(N)=O` (stereo unspecified), the cell number change was -7.33%. Under setting [1], the AC50 was 3.66 µM [falling, partial curve].

For the molecule `CC1CCN(S(=O)(=O)c2cccc(C(=O)NCc3cccs3)c2)CC1`, the cell number change came to 10.5%. In addition, the concentration at half-maximal activity (AC50) under setting [1] is 29.1 µM [rising, single point].

Take `O=C(CNc1cccc(F)c1)Nc1cccc(S(=O)(=O)N2CCCCC2)c1`: the cell number change was -2.97%.

As for `COCCn1c(SCC(=O)Nc2cccc(OC)c2)nnc1-c1ccccc1`, the cell number change turned out to be 76.3%. The AC50 under setting [2] is 20.6 µM [rising, single point]. Under setting [1], the AC50 is 0.82 µM [rising, single point].

For `Cc1ccc(-c2nn(C)c(=O)c3ccccc23)cc1CNC(=O)Cn1nc(-c2ccccc2)c2ccccc2c1=O`, the cell number change was -1.61%.

As for `Cc1ccc(Nc2nc(N)nc(CSc3ncccn3)n2)cc1`, the cell number change is 13.4%. Besides, the AC50 under setting [1] was 0.517 µM [rising, full curve].

With `CCCC(=O)Nc1cc(C(=O)O)ccc1S(=O)(=O)c1ccc(C)cc1`, the cell number change came to 15.6%. Besides, under setting [1], the AC50 is 20.6 µM [falling, partial curve].

Take `O=C(Cn1c(-c2ccccc2)noc1=O)Nc1ccc(S(=O)(=O)N2CCOCC2)cc1`: the cell number change was -10.5%.

As to `COc1ccc(-c2cc(C(F)(F)F)nc(-n3cc(Br)cn3)n2)cc1`, under setting [2], the AC50 was 1.03 µM [rising, partial curve].

For `COCCn1c(SC(C)C(=O)Nc2ncc(Cl)cc2Cl)nc2ccccc21` (stereo unspecified), the half-maximal activity concentration (AC50) is 2.31 µM [rising, single point] under setting [2] and 3.26 µM [rising, partial curve] under setting [1].

In the case of `COc1ccc(C(C(N)=O)c2ncc(C(F)(F)F)cc2Cl)cc1OC` (stereo unspecified), the cell number change is -31%.

Regarding `CCCCCOc1ccc(Cn2ccnc2)cc1[N+](=O)[O-]`, the cell number change is -41.2%. Also, the AC50 under setting [2] is 29.1 µM [falling, single point].

With `CCOC(=O)c1ccccc1NC(=O)N1CCn2c(C)ccc2C1CC` (stereo unspecified), the AC50 under setting [2] was 0.651 µM [falling, single point].

Consider `COc1ccc(CC(=O)Nc2c3c(nn2-c2cccc(Cl)c2)CS(=O)(=O)C3)cc1`, for which the AC50 runs as follows: under setting [2], 3.66 µM [rising, partial curve]; under setting [1], 1.16 µM [rising, full curve].

On to `Cc1nc(CCNS(=O)(=O)c2cccnc2)cs1`, for which the cell number change came out at 29.1%. Besides, the half-maximal activity concentration (AC50) under setting [1] is 20.6 µM [rising, single point].

For the molecule `COC(=O)c1ccc(CSc2nc(C(F)(F)F)c3c(c2C#N)CCC3)o1`, the cell number change came to 3.16%.

With `COc1ccc(NC(=S)N2CCN(c3ccccn3)CC2)cc1`, the cell number change came to 10.6%. The concentration at half-maximal activity (AC50) under setting [1] was 2.91 µM [rising, partial curve].

Regarding `CCOc1ccc(N2CC(NC(=O)c3ccc4ccccc4c3)CC2=O)cc1` (stereo unspecified), the cell number change is -51.5%. Besides, under setting [2], the AC50 was 4.61 µM [falling, single point]. For the same molecule, under setting [1], the concentration at half-maximal activity (AC50) was 0.58 µM [falling, single point].

Take `CCN(CC)CCCNC(=O)C1CCCN(c2nnc(N3CCCC3=O)s2)C1` (stereo unspecified): the half-maximal activity concentration (AC50) under setting [1] is 23.1 µM [falling, partial curve].

With `Cc1ccc(-c2nn3c(C)nnc3c3ccccc23)cc1S(=O)(=O)N1CCN(CCO)CC1`, the cell number change was determined as 4.82%. Also, the AC50 under setting [1] was 2.31 µM [rising, full curve, poor fit].

Regarding `CC(C)C(NC(=O)c1ccc(F)cc1)C(=O)NC1(C)CCS(=O)(=O)C1` (stereo unspecified), the cell number change was determined as 19%. Under setting [1], the concentration at half-maximal activity (AC50) was 4.11 µM [rising, single point].

In the case of `O=C1C2CC=CCC2C(=O)N1c1ccc(N2CCN(c3ccccn3)CC2)c([N+](=O)[O-])c1` (stereo unspecified), the cell number change is -66.4%. Besides, the AC50 under setting [2] was 23.1 µM [falling, partial curve]. Further, the concentration at half-maximal activity (AC50) under setting [1] is 25.9 µM [falling, partial curve].

For the molecule `CSc1ccc(/C=N/N2CCN(c3ccccc3)CC2)cc1`, the cell number change was -5.31%.

Take `Cc1sc(-n2cccc2)c(C(=O)O)c1C`: under setting [1], the AC50 is 13 µM [falling, partial curve].

As for `CCC(=O)Nc1ccc(NC(=S)NC(=O)Cc2ccccc2)cc1`, the cell number change is -4.63%. Also, under setting [1], the AC50 was 0.651 µM [rising, single point].

Take `Cc1c(N(C)C(=O)c2ccco2)c(=O)n(-c2ccccc2)n1C`: the cell number change is -115%. Further, the AC50 under setting [2] was 32.6 µM [falling, partial curve]. Moreover, the AC50 under setting [1] is 25.9 µM [falling, partial curve].

For the molecule `CC(C)(C)OC(=O)N1CCC(NC(=O)c2[nH]cnc2C(=O)Nc2cccc(Cl)c2)CC1`, the cell number change is -75.9%. Further, the AC50 under setting [2] was 18.4 µM [falling, partial curve]. Besides, the AC50 under setting [1] was 0.517 µM [falling, partial curve, poor fit].

Take `Fc1ccc2c(Cl)c(-c3nnc(-c4cccs4)o3)sc2c1`: the cell number change is 28.2%.

For the molecule `CC1CCN(CC(=O)Nc2ccccc2-c2ccccc2)CC1`, the cell number change is -42.1%. The concentration at half-maximal activity (AC50) under setting [2] is 23.1 µM [falling, single point]. Also, the AC50 under setting [1] was 20.6 µM [falling, single point].

For `CC(C)C[C@@H](CSc1ccc(Br)cc1)N1CCN(CC(C)C)CCC1=O`, the cell number change came out at 16.7%. Besides, the AC50 under setting [1] was 4.61 µM [rising, single point].

As for `O=C1c2ccccc2C(=O)c2[nH]cnc21`, the cell number change was -33.5%. For the same molecule, the concentration at half-maximal activity (AC50) under setting [2] was 29.1 µM [falling, single point]. Under setting [1], the concentration at half-maximal activity (AC50) was 29.1 µM [falling, single point].

As to `COc1cc(NC(=O)c2cc(-c3cccnc3)nc3ccc(Br)cc23)cc(OC)c1`, the cell number change worked out at 41.8%. Also, under setting [2], the AC50 is 6.51 µM [falling, single point]. Moreover, the AC50 under setting [1] was 20.6 µM [falling, partial curve, poor fit].

For `Cc1ccnc(SCC(=O)N2CCN(C(c3ccccc3)c3ccccc3)CC2)n1`, the cell number change was 13.6%. Also, the AC50 under setting [2] was 6.51 µM [rising, single point].

As for `O=C(NC(NCC1CCCO1)C(Cl)(Cl)Cl)c1cccc2ccccc12` (stereo unspecified), the cell number change was found to be 62.3%. The AC50 under setting [2] is 14.6 µM [rising, single point]. Under setting [1], the AC50 is 16.4 µM [rising, partial curve].

Take `CCS(=O)(=O)c1nc(S(=O)(=O)c2ccc(Cl)cc2)c(N2CCc3ccccc3C2)s1`: the cell number change is 76.2%. Besides, the half-maximal activity concentration (AC50) under setting [2] was 29.1 µM [rising, single point]. Further, the AC50 under setting [1] was 8.2 µM [rising, single point].

Consider `COCc1nnc(NC(=O)CCCCCN2C(=O)c3ccccc3C2=O)s1`, for which the cell number change worked out at 71%. Further, under setting [2], the AC50 was 29.1 µM [rising, single point].

Consider `CCOc1ccc(N2C(=O)CC(N3CCC(NC(=O)Nc4ccccc4)CC3)C2=O)cc1` (stereo unspecified), for which the cell number change turned out to be 38%. The AC50 under setting [2] was 2.31 µM [rising, partial curve, poor fit]. The AC50 under setting [1] is 1.84 µM [rising, partial curve].

For the molecule `CN(CC(=O)NCc1cccnc1)S(=O)(=O)c1ccc2c(c1)c(=O)n(C)c(=O)n2C`, the cell number change is 20.6%. The AC50 under setting [1] was 0.00731 µM [rising, full curve, poor fit].

In the case of `O=C(COC(=O)Cc1c(Cl)cccc1Cl)Nc1ccc(OC(F)(F)F)cc1`, the cell number change is -23.6%. Under setting [2], the AC50 was 0.00517 µM [falling, full curve, poor fit].

For the molecule `COC(=O)C1=C(C)N(Cc2ccccc2)C(=NCC(C)C)N[C@H]1c1ccccc1`, the cell number change is -9.59%. Moreover, the concentration at half-maximal activity (AC50) under setting [1] is 6.51 µM [falling, single point].

For the molecule `CCOC(=O)NC(=O)COC(=O)Cc1cc(OC)c(OC)c(OC)c1`, the cell number change amounted to 10.3%. In addition, the AC50 under setting [1] was 6.51 µM [falling, single point].

In the case of `O=c1c2c(-c3cccs3)csc2[nH]c(=S)n1-c1ccccc1`, the cell number change was -20.2%.

`C/C(N)=C(/C#N)C(=O)COC(=O)c1ccc(C)c(S(=O)(=O)N2CCCCC2)c1`: the concentration at half-maximal activity (AC50) under setting [2] is 0.651 µM [rising, full curve, poor fit].

For `COc1ccc(N2C(=O)CC(Sc3ccccc3C(=O)O)C2=O)c([N+](=O)[O-])c1` (stereo unspecified), the cell number change is 9.54%.

As for `CC(Sc1nnc(COc2ccc([N+](=O)[O-])cc2)n1-c1ccccc1)C(=O)O` (stereo unspecified), the cell number change was -10%. Besides, the AC50 under setting [1] was 0.0517 µM [falling, full curve, poor fit].

For the molecule `Cn1c(N)c(C(=O)COc2ccc(C#N)cc2)c(=O)n(C)c1=O`, the AC50 under setting [1] was 6.51 µM [rising, single point].

Consider `COc1ccc([C@@H]2[C@@H]3C(=O)N(C(C)(C)C)C(=O)[C@@H]3[C@]3(CC(C)C)C(=O)N(c4ccccc4)C(=O)N23)cc1`, for which the cell number change is -6.59%.

As to `C#CCOCCOCCOCCNc1nc(N2CCN(C(=O)CCCCCCCCCCNC(=O)[C@H]([C@@H](C)CC)n3cc(CCCCN=C(N)N)nn3)CC2)nc(N2CCN(C(=O)CCCCCCCCCCNC(=O)[C@H](CO)n3cc(CCCSC)nn3)CC2)n1`, the cell number change was -49.5%. Moreover, under setting [2], the AC50 is 18.4 µM [falling, partial curve]. Further, the AC50 under setting [1] is 0.13 µM [falling, full curve, poor fit].
